PubChem BioAssay AID1224826, NIAID – 2016

Test: 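Genes that change LPS-induced Tnf promoter activity in mouse macrophages when knocked down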 (primary screen)
System: RAW264.7 G9 macrophages from mouse bearing reporters for p65 (GFP) and the Tnf promoter (mCherry)
Reagents: siRNA pool against mouse genes, 100 nM
Timing: 16 h of LPS stimulation, after 2 days of siRNA transfection
Treatment: bacterial lipopolysaccharide (Salmonella minnesota R595), 10 ng/ml
Detection: 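Imaged Tnf reporter mCherry in nuclei, minus background, normalised per plate to the median and expressed as robust z-scores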
Reading the numbers: Tnf reporter robust z-score: higher = stronger Tnf promoter reporter signal after LPS
Hit rule: 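Called active when robust z-score is at most -1.3, matching the median of the Tlr4 knock-down control, or over 3; control wells and wells with under 50 cells never active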
Calls: active = Tnf reporter clearly lowered or raised; inactive = no clear change in Tnf reporter
In all, the deposit lists about 17,000 reagents; this is a part drawn at random. About 1,110 of all reagents (6.6%) count as active. 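Active means lowered or raised reporter signal; replicate intensities are raw and not normalised per plate.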 Unmarked entries are inactive. Reagents against one gene are numbered here. Further read-outs or replicates are left out here. Reagent sequences are not shown.

target gene | reagent | Tnf reporter robust z-score | fewer than 50 cells in well
Vmn1r64 | 1 | -0.37 | enough cells in well
Klra21 | 1 | -0.83 | enough cells in well
Ift88 | 1 | -0.23 | enough cells in well
Areg | 1 | -0.56 | enough cells in well
Pja1 | 1 | -0.28 | enough cells in well
Slc25a48 | 1 | 4.22 (active) | enough cells in well
Hsd17b7 | 1 | -0.41 | enough cells in well
Cables2 | 1 | – | fewer than 50 cells per well; well left out of calls
AW209491 | 1 | -0.14 | enough cells in well
Cx3cl1 | 1 | -0.64 | enough cells in well
Polh | 1 | -0.85 | enough cells in well
Tnfrsf13b | 1 | 0.3 | enough cells in well
Pcp2 | 1 | – | fewer than 50 cells per well; well left out of calls
Rab11b | 1 | -0.3 | enough cells in well
Rab11b | 2 | 3.38 (active) | enough cells in well
Dnah8 | 1 | 0.58 | enough cells in well
Tdpoz3 | 1 | -0.63 | enough cells in well
Abca15 | 1 | -0.6 | enough cells in well
Gm9735 | 1 | -1.23 | enough cells in well
Ubap1 | 1 | -0.74 | enough cells in well
Scara5 | 1 | 0.05 | enough cells in well
Syt14 | 1 | 0.94 | enough cells in well
Cd22 | 1 | 0.87 | enough cells in well
F2rl2 | 1 | -0.03 | enough cells in well
Crybg1 | 1 | -0.6 | enough cells in well
Coq8a | 1 | 0.6 | enough cells in well
Trrap | 1 | 0.86 | enough cells in well
Pcmtd2 | 1 | 0.26 | enough cells in well
Unc13a | 1 | 1.56 | enough cells in well
Or4c109 | 1 | 0.35 | enough cells in well
Kcnj2 | 1 | 0.87 | enough cells in well
Nme5 | 1 | -0.19 | enough cells in well
Bnip3l | 1 | 0.05 | enough cells in well
Umps | 1 | 0.29 | enough cells in well

Next part (2 carried over from the part before).
target gene | reagent | Tnf reporter robust z-score | fewer than 50 cells in well
Bnip3l | 1 | 0.05 | enough cells in well
Umps | 1 | 0.29 | enough cells in well
Msantd1 | 1 | -0.67 | enough cells in well
Pcolce | 1 | -1.43 (active) | enough cells in well
Lrrc20 | 1 | -0.86 | enough cells in well
Gpt | 1 | -0.62 | enough cells in well
Got1 | 1 | -1.71 (active) | enough cells in well
Add3 | 1 | -0.49 | enough cells in well
Nsd3 | 1 | -0.04 | enough cells in well
Ca5b | 1 | -0.38 | enough cells in well
Ubash3b | 1 | 1.48 | enough cells in well
Swt1 | 1 | -1.43 (active) | enough cells in well
Dhx8 | 1 | – | fewer than 50 cells per well; well left out of calls
Bpnt2 | 1 | -0.39 | enough cells in well
2410137M14Rik | 1 | 1.29 | enough cells in well
Matr3 | 1 | -0.41 | enough cells in well
Or5g26 | 1 | 3.4 (active) | enough cells in well
Cyp24a1 | 1 | 1.29 | enough cells in well
Mrgpra2b | 1 | 2.75 | enough cells in well
Thyn1 | 1 | – | fewer than 50 cells per well; well left out of calls
Abcg4 | 1 | 0.1 | enough cells in well
AI593442 | 1 | 0.1 | enough cells in well
Zfp595 | 1 | -0.09 | enough cells in well
Itgb7 | 1 | -0.19 | enough cells in well
Suv39h1 | 1 | -0.04 | enough cells in well
Fuom | 1 | -0.66 | enough cells in well
